# Small-molecule microarray binding calls

Calls as published in the ROBIN set (doi:10.1002/anie.202211358).

Targets (5′ to 3′):
TPP: TPP riboswitch RNA three-way junction, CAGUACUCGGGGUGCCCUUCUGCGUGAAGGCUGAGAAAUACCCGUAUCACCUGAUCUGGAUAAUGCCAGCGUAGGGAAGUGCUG. About 160 hits among about 24,000 compounds.
SAM-II: SAM-II riboswitch RNA pseudoknot, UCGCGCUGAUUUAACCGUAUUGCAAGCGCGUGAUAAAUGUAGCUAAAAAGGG. About 200 hits among about 21,000 compounds.
PreQ1: PreQ1 riboswitch RNA pseudoknot, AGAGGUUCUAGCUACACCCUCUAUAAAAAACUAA. From B. subtilis. About 170 hits among about 24,000 compounds.

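Compounds were printed on reactive glass slides in duplicate spots, a dye-labelled oligonucleotide was laid over them, and the fluorescence left after washing was read. For the PreQ1, TPP and SAM-II riboswitches the laboratory earlier reported (doi:10.1038/s41467-019-09493-3) 1 µM RNA, 2 h, and a rule that included a mean Z-score above 3 (spot signal-to-noise against the whole library), a score well above that on a control array, and duplicate spots agreeing (coefficient of variation under 100). The data file gives only the calls; its cut-offs may differ, and compounds hitting several targets are kept. A missing hit is not proof of no binding, and a hit is not a measured affinity.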
“1” means called a hit, “0” means screened and not called a hit.
The compounds are a random part of those screened.
A dash means that no call is listed here.

| compound | TPP | SAM-II | PreQ1 |
|---|---|---|---|
| `COc1ccc2nc3cc(Cl)ccc3c(Nc3cc(C(C)C)c(O)cc3C)c2c1` | 0 | 0 | 0 |
| `COc1ccc(-c2cc(C(F)(F)F)nc(NCc3cccs3)n2)cc1` | 0 | 0 | 0 |
| `O=C1CCC2(CCN(CCSc3ccccc3)CC2)CN1CCCO` | 0 | 0 | 0 |
| `CC(C=CC1=C(C)CCCC1(C)C)=CC=CC(C)=CC(=O)O` | 0 | 0 | 0 |
| `Cc1cc(C)nc(CCNC(=O)c2cccc(NCc3sccc3C)c2)n1` | 0 | 0 | 0 |
| `OC1Cc2ccccc2C12CCN(Cc1ccnn1-c1ccccc1)CC2` (centres unmarked) | 0 | 0 | 0 |
| `Cc1noc(-c2cccnc2NCc2ccccc2)n1` | 0 | - | 0 |
| `COc1ccc(CNCc2cccc3[nH]ccc23)cc1` | 0 | 0 | 0 |
| `Cc1c(C(=O)N2CCC3(CC2)[C@H](O)C[C@@H]3OCCN)cnc2ccnn12` | 0 | 0 | 0 |
| `O=C(NCc1ccccc1Cl)c1nn(-c2ccccc2)nc1CO` | 0 | - | 0 |
| `Cc1ccccc1C1C(C#N)=C(N)OC2=C1S(=O)(=O)N(C)c1ccccc12` (centres unmarked) | 0 | - | 0 |
| `COc1ccc2[nH]c(CNC(C)CC(C)(C)OC)cc2c1` (centres unmarked) | 0 | 0 | 0 |
| `Cn1c(NCCN)nc2c1c(=O)n(Cc1ccccc1)c(=O)n2C` | 0 | - | 0 |
| `CC1(C)CC(=O)C2=C(C1)OC(N)=C(C#N)C2c1c(F)cccc1Cl` (centres unmarked) | 0 | 0 | 0 |
| `Clc1ccc(-c2noc(-c3cccnc3NCc3cccnc3)n2)cc1` | 0 | - | 0 |
| `CC(=O)Nc1ccc2c(c1)NC(=O)CC2c1ccc(C#CCCO)cc1` (centres unmarked) | 0 | 0 | 0 |
| `OCC1COc2ccccc2O1` (centres unmarked) | 0 | 0 | 0 |
| `Cc1nc2c(c(=O)n1C)CCN(Cc1cc(C#CCO)cs1)CC2` | 0 | 0 | 0 |
| `Nc1cc(-c2ccccc2)ccc1O` | 0 | 0 | 0 |
| `Nc1cncc(-c2nc3ccccc3o2)c1` | 0 | 0 | 0 |
| `Cc1noc(-c2ccc(CSCCC(=O)O)cc2)c1NC(=O)OC(C)c1ccccc1Cl` (centres unmarked) | 0 | 0 | 0 |
| `CCCCNc1ccc(S(=O)(=O)N2CCCCC2)cc1[N+](=O)[O-]` | 0 | 0 | 0 |
| `O=C(CCc1cc2n(n1)CCNC2)N1CCN(C(=O)c2cccs2)CC1` | 0 | 0 | 0 |
| `N#Cc1cc(NC(=O)Nc2nnc(-c3ccncc3)s2)ccc1-c1cn[nH]c1` | 1 | 0 | 1 |
| `CCC1(O)CC2CN(CCc3c([nH]c4ccccc34)[C@@](C(=O)OC)(c3cc4c(cc3OC)N(C)[C@H]3[C@](O)(C(N)=O)[C@H](O)[C@]5(CC)C=CCN6CC[C@]43[C@@H]65)C2)C1` (some centres unmarked) | 0 | 0 | 0 |
| `CN(C)C(=O)C(Nc1nc(N)nc2c1CCCC2)c1ccccc1` (centres unmarked) | 0 | 0 | 0 |
| `CCCc1nc(-c2cc3cc(C)ccc3nc2NCc2cccc(OC)c2OC)no1` | 0 | - | 0 |
| `Cc1ccc2ncc(S(=O)(=O)c3ccccc3)c(NCc3ccc(F)cc3)c2c1` | 0 | - | 0 |
| `COc1cccc(C(=O)N2CCC3(CCC(=O)N(CCCO)C3)CC2)c1` | 0 | 0 | 0 |
| `CN(Cc1cc2n(n1)CCNC2)Cc1cc(-c2ccccc2)n[nH]1` | 0 | 0 | 0 |
| `FCCN(CCF)c1cccc(Cl)c1` | 0 | 0 | 0 |
| `CCC(C)Nc1nc(SC)nc(-c2ccc(Cl)cc2)c1C#N` (centres unmarked) | 0 | - | 0 |
| `Cc1cc(OCC(O)Cn2c(C3CC(=O)N(C(C)(C)C)C3)nc3ccccc32)cc(C)c1Cl` (centres unmarked) | 0 | - | 0 |
| `Cc1cccc(-n2cccc2CN2CCOC(CN)C2)c1` (centres unmarked) | 0 | 0 | 0 |
| `Cc1cc(C2CCCN2C(=O)CN2CC3(CCNCC3)OC2=O)on1` (centres unmarked) | 0 | 0 | 0 |
| `Cc1ccc(S(=O)(=O)NCC(Nc2ccc(Br)cc2)c2ccccc2)cc1` (centres unmarked) | 0 | - | 0 |
| `COC(=O)c1cccc(Nc2c(-c3ccc(N4CCOCC4)cc3)nc3cnccn23)c1` | 0 | - | 0 |
| `CCc1cnc(C)nc1N1CCC(NCC2(Cn3cccn3)CC2)CC1` | 0 | 0 | 0 |
| `O=C(CCSC1CCc2ccccc2NC1=O)NCCCO` (centres unmarked) | 0 | - | 0 |
| `CC(C)(C)C(O)Cn1c(=N)n(CCN2CCCCC2)c2ccccc21` (centres unmarked) | 0 | 0 | 0 |
| `CCOC(=O)c1cnc2ccc(Br)cc2c1Nc1ccc(N(C)C)cc1` | 0 | 0 | 0 |

Repeated from the top, 4 entries:

compound	TPP	SAM-II	PreQ1
COc1ccc2nc3cc(Cl)ccc3c(Nc3cc(C(C)C)c(O)cc3C)c2c1	0	0	0
COc1ccc(-c2cc(C(F)(F)F)nc(NCc3cccs3)n2)cc1	0	0	0
O=C1CCC2(CCN(CCSc3ccccc3)CC2)CN1CCCO	0	0	0
CC(C=CC1=C(C)CCCC1(C)C)=CC=CC(C)=CC(=O)O	0	0	0